The values that follow come from the supplement of paper PMC12578635.

± gives the standard deviation of the averaged measurements. The list shows a part of the results. Most values come without repeats; read them as rough.

This test deals with RAW 264.7 macrophages infected with S. aureus JE2-lux. In words: host macrophage viability (CellTiter-Fluor) relative to DMSO vehicle; higher = more viable host cells. The conditions noted are these: 10 µM; treatment time 4 h; gentamicin 50 µg/ml.
Consider `Cn1cnc([N+](=O)[O-])c1Sc1ccc([N+](=O)[O-])cc1`, for which the host macrophage viability was 117%.
In the case of `O=C1NC(=O)C(=Cc2nc(-c3ccccc3Cl)n3ccccc23)C(=O)N1`, the host macrophage viability is 116%.
Consider `CC1=CC(=C2C(=O)NC(=S)NC2=O)C=C(C)N1Cc1ccco1`, for which the host macrophage viability turned out to be 147%.
As for `O=C1NC(=O)C(=NNc2ccc(OC(F)F)cc2)C(=O)N1`, the figure is 90.1%.
As for `CS(=O)(=O)c1ccccc1C(=O)Nc1ccc(Cl)cc1C(=O)c1ccccc1Cl`, the figure is 100%.
For the compound `CC1C(C#N)=C(N)Oc2c1c(=O)oc1ccccc21` (stereo not drawn), the host macrophage viability worked out at 96.8%.
On to `Cc1ccccc1-c1ncccc1C(=O)N1CCC(C(=O)N2CCC3(CC2)OCCO3)CC1`, for which the host macrophage viability stood at 92.6%.
For the compound `COC(=O)C1=C(N)Oc2cc(C)n(CC3CCCO3)c(=O)c2C12C(=O)Nc1ccccc12` (stereo not drawn), the host macrophage viability stood at 116%.
Then `O=C1NC(=S)NC(=O)C1=Cc1nc(-c2ccc(Cl)cc2)n2ccccc12`, with 126%.
As for `O=C1CN=C(c2ccc(F)cc2)c2cc(F)ccc2N1`, the figure is 121%.
Then `CCS(=O)(=O)c1cccc(C(=O)Nc2ccc(Cl)cc2C(=O)c2ccccc2)c1`, with 121%; and `Cc1cc(O)c(C(=O)Nc2cccc(Cl)c2)c(=O)n1CC1CCCO1` (stereo not drawn), with 120%; and `O=C1NC(=O)C(=Cc2ccc(-c3cccc([N+](=O)[O-])c3)o2)C(=O)N1`, with 104.1 ± 0.26%.
With `CC(=O)C1(c2ccccc2)CCN(C(=O)c2ncoc2-c2ccc(F)cc2)CC1`, the host macrophage viability stood at 127%.
As for `Cc1nnc(N2CCNCC2)c2nn(-c3ccccc3)c(C)c12`, the figure is 122%.
As for `O=C(c1ccccc1)c1cc(Cl)ccc1NC(=O)c1coc2ccccc2c1=O`, the figure is 107 ± 9.4%.
With `CCCCn1c(=S)[nH]c(O)c(C2=NN(C(=O)CC)C(c3ccc(N(CC)CC)cc3)C2)c1=O` (stereo not drawn), the host macrophage viability is 107%.
Consider `Cc1ccc(N2C(=O)NC(=O)/C(=C/c3cn(C)c4ccccc34)C2=O)cc1`, for which the host macrophage viability came out at 122 ± 4.1%.
As for `Cc1ccc(-c2ccc(C=C3C(=O)NC(=O)NC3=O)o2)cc1`, the figure is 119%.
In the case of `O=C1NC(=O)C(=CNc2ccccc2C(=O)c2ccccc2)C(=O)N1`, the host macrophage viability came out at 118%.
Then `CC(=O)N1N=C(c2c(O)n(C)c(=S)n(C)c2=O)CC1c1ccc(C(C)C)cc1` (stereo not drawn), with 124%.
Turning to `COc1ccc(OC)c(N2C(=O)NC(=O)/C(=C\c3ccco3)C2=O)c1`, the host macrophage viability was found to be 111%.
Then `COc1ccc(C=C2C(=O)NC(=O)NC2=O)cc1OC`, with 119 ± 12%; and `CC(=O)c1cccc(NC(=O)N2CCC3(CC2)OCCO3)c1`, with 116%.
As for `O=C(c1ncoc1-c1ccc(F)cc1)N1CC2CC(C1)c1cccc(=O)n1C2` (stereo not drawn), the figure is 86.6%.
As for `O=C1NC(=S)NC(=O)C1=CNc1ccc(Cl)cc1C(=O)c1ccccc1`, the figure is 123%; as for `O=C(Nc1ccncc1)c1cccn(Cc2ccccc2F)c1=O`, 136%; as for `Cc1nc2nc(-c3ccc(C(C)(C)C)cc3)nn2c(C)c1CC(=O)N1CCN(CCO)CC1`, 110%.
Regarding `CC1Oc2ccc(S(=O)(=O)N3CC4CC(C3)c3cccc(=O)n3C4)cc2NC1=O` (stereo not drawn), the host macrophage viability was determined as 102%.
Then `COC(=O)c1ccc(C(=O)OC)c(NC(=O)c2cccn(Cc3ccc(C)cc3)c2=O)c1`, with 146%.
Then `CCC(=O)N1N=C(c2c(O)[nH]c(=S)n(C)c2=O)CC1c1cc(OC)ccc1OC` (stereo not drawn), with 96%; and `CCC(=O)N1N=C(c2c(O)n(C)c(=S)n(C)c2=O)CC1c1ccc(N(CC)CC)cc1` (stereo not drawn), with 106%; and `CN(CCC#N)c1ccc(C=C2C(=O)NC(=S)NC2=O)cc1`, with 140%.
Consider `O=C1NC(=S)NC(=O)C1=Cc1ccc(-c2cc(Cl)ccc2Cl)o1`, for which the host macrophage viability was 107%.
As for `O=C(c1cccnc1)N1Cc2ccccc2-n2cccc2C1c1cc(F)cc(F)c1` (stereo not drawn), the figure is 120%; as for `COC(=O)C1=C(N)Oc2cc(C)n(Cc3ccccc3)c(=O)c2C12C(=O)N(C)c1ccccc12` (stereo not drawn), 121%.
Consider `O=C(C(=O)N1CCC2(CC1)OCCO2)c1c[nH]c2ccccc12`, for which the host macrophage viability was determined as 104 ± 21%.
Turning to `CCCCn1c(=S)[nH]c(O)c(C2=NN(C(C)=O)C(c3ccc4c(c3)OCO4)C2)c1=O` (stereo not drawn), the host macrophage viability turned out to be 132%.
